Our source for the binding values is paper PMC9630973.

Protein sequences, listed by entry. Tags and fused reporters are not part of them. Lines headed by an entry give the natural chain unless they say otherwise; changes in a name come on top.
UniProt A0A3Q7FUH8: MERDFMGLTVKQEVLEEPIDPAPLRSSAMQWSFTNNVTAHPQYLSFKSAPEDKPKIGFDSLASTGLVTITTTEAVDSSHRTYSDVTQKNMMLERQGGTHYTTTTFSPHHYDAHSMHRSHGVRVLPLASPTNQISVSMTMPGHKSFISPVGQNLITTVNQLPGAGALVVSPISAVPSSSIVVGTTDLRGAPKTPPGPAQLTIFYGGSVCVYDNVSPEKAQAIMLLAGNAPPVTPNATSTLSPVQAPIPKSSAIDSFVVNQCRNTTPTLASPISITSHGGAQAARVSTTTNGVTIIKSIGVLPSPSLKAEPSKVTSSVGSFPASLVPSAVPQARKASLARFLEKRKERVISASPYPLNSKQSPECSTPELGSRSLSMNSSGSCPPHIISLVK
UniProt B6D1Q5: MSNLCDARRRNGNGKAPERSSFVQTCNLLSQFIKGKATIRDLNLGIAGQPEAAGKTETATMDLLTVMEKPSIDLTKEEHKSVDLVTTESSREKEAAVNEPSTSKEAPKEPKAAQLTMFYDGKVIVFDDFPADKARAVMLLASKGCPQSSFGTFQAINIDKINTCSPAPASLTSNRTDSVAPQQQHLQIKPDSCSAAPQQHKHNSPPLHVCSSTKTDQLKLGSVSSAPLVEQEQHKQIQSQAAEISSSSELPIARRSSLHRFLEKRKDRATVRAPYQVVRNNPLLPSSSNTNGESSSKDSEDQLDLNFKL
UniProt A7XXZ0: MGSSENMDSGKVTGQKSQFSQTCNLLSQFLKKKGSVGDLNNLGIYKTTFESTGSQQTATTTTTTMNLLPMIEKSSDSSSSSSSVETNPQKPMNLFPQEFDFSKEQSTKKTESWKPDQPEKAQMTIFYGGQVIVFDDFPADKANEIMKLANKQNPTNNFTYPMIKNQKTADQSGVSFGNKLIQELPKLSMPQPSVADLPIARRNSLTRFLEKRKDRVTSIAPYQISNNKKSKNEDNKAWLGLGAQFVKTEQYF
UniProt A0A3Q7H988: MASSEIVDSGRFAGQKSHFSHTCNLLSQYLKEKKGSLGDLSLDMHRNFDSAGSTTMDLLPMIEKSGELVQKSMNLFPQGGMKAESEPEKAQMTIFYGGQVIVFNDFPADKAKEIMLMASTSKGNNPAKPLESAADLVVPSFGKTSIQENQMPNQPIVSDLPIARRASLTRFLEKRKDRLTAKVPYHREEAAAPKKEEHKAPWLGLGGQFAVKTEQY

Results are given in words; binding and its absence hold for the method and conditions named. Binding can be weak; no strength is given. Sequences can lack the tags named with a protein. For some of these results: In cells and extracts the contact can be indirect.

For experiment [1], the target named is BD-SlWRKY45 (tomato (Solanum lycopersicum)). The experiment is described as follows: two-hybrid; AD-SlJAZs or AD-fused SlJAZ7/SlJAZ11 domain constructs (pB42AD) with BD-SlWRKY45 (pLexA), in yeast (Fig. 1B, 2B).
In experiment [2] the target is cLUC (C-terminal fragment of LUC)-fused SlWRKY45 (tomato (Solanum lycopersicum)). As to the kind of experiment: split reporter; firefly luciferase complementation imaging (LCI): nLUC and cLUC fusions coexpressed in N. benthamiana leaves, read 50 h after infiltration.
Experiment [3] has as its target cYFP (C-terminal part of YFP)-fused SlWRKY45 (tomato (Solanum lycopersicum)). As to the kind of experiment: split reporter; BiFC: nYFP and cYFP fusions coexpressed in N. benthamiana leaves, confocal microscopy 50 h after injection.
In experiment [4] the target is MBP-fused SlWRKY45 (tomato (Solanum lycopersicum)). The experiment is described as follows: pull-down; MBP-SlWRKY45 or MBP on amylose resin (4 h, 4°C), incubated 2 h at 4°C with 200 μL extract of N. benthamiana leaves expressing myc-SlJAZ; anti-myc blot; only the target purified.

Consider AD-SlJAZ4 (from UniProt A0A3Q7JB95), for which the binding result in experiment [1] is on record as “binds”.
Still for that read-out and setting: the result for AD-SlJAZ5 (from UniProt A0A3Q7FUH8) reads “binds”.
On the same count and under the same terms, the result for AD-SlJAZ3 (from UniProt B6D1Q5) reads “binds”.
Still for that read-out and setting: the result for AD-SlJAZ2 (from UniProt A7XXZ0) reads “binds”; that for AD-SlJAZ6 (from UniProt A0A3Q7E7J6), “binds”.
Take AD-SlJAZ1 (from UniProt A0A3Q7H988): in experiment [1], the binding entry is reported as “binds”.

B1: SlJAZ7-nLUC (protein, UniProt Q9M723 1-228)
chain: MDSRMEIDFMDLNSKPKLSEMEKQHKKVSGMKWPFSLADLATHHEHTFFQNYKSTPIVSINSKNSSLNNYKSTIDPQYFRGTFPLLAKTSTYDSRKNYDNLSPNESTLTIFYMGEVHIFPGISPEKAELIIDLVSKSTTLHMDEILEKVMNKEKYEENKSDPSNASTNYAKGALAMARRATLARFLEKRKHRLIKARPYLYGENLSKFPFDIQQQEEETASSSVHWEN
With B1, the binding entry in experiment [2] was “binds”.

B2: AD-SlJAZ7 (protein, UniProt Q9M723 1-228)
chain: MDSRMEIDFMDLNSKPKLSEMEKQHKKVSGMKWPFSLADLATHHEHTFFQNYKSTPIVSINSKNSSLNNYKSTIDPQYFRGTFPLLAKTSTYDSRKNYDNLSPNESTLTIFYMGEVHIFPGISPEKAELIIDLVSKSTTLHMDEILEKVMNKEKYEENKSDPSNASTNYAKGALAMARRATLARFLEKRKHRLIKARPYLYGENLSKFPFDIQQQEEETASSSVHWEN
As for B2, the binding result in experiment [1] is “binds”.

B3: SlJAZ7-nYFP (protein, UniProt Q9M723 1-228)
chain: MDSRMEIDFMDLNSKPKLSEMEKQHKKVSGMKWPFSLADLATHHEHTFFQNYKSTPIVSINSKNSSLNNYKSTIDPQYFRGTFPLLAKTSTYDSRKNYDNLSPNESTLTIFYMGEVHIFPGISPEKAELIIDLVSKSTTLHMDEILEKVMNKEKYEENKSDPSNASTNYAKGALAMARRATLARFLEKRKHRLIKARPYLYGENLSKFPFDIQQQEEETASSSVHWEN
As for B3, in experiment [3], the binding result is “binds”.

B4: myc-fused SlJAZ7 (protein, UniProt Q9M723 1-228)
chain: MDSRMEIDFMDLNSKPKLSEMEKQHKKVSGMKWPFSLADLATHHEHTFFQNYKSTPIVSINSKNSSLNNYKSTIDPQYFRGTFPLLAKTSTYDSRKNYDNLSPNESTLTIFYMGEVHIFPGISPEKAELIIDLVSKSTTLHMDEILEKVMNKEKYEENKSDPSNASTNYAKGALAMARRATLARFLEKRKHRLIKARPYLYGENLSKFPFDIQQQEEETASSSVHWEN
As to B4, the binding result in experiment [4] was “binds”.
